This is an account of results in US20040102382A1, “Targeting peptides” (priority 2002, published 2004).

The subject of the series is Tumor. The series is described as follows: Phage display tumor selection (Table 2).
Regarding DAQQLYLSNWRS, the “Frequency (number of times the sequence was found/number of sequences done)” value is given as 3/50. Turning to TQSPLNYRPALL, the “Frequency (number of times the sequence was found/number of sequences done)” value is recorded as 6/50. As to SFPTHIDHHVSP, the “Frequency (number of times the sequence was found/number of sequences done)” value is listed as 4/50. Consider THRPSLPDSSRA, for which the “Frequency (number of times the sequence was found/number of sequences done)” value is 5/50.
